Results: patent US10525115B2 (Immatics Biotechnologies GmbH, priority 2014, dated 2020)

Experiments:
[1] = test system: cancer tissues in comparison to non-cancerous tissues and organs; assay: Presentation profile / over-presentation by label-free LC-MS (XPRESIDENT), tumor versus normal tissues, other proliferative diseases; design: species or system human; settings: other proliferative diseases / organs (other than AML) that over- or exclusively present the peptide; Table 5
primary AML samples = assay: HLA class I ligandome analysis (W6/32 immunoaffinity purification, LC-MS/MS) of primary AML samples; design: species or system human; settings: AML patients (n=15)
[2] = HLA class I ligandome, count for the HLA ligand (LiTAP) or, on protein lines, for the source protein (LiTAA)

In the case of “152 (YELDLREPAL; listed as Homo sapiens) [compound 152]”, the “Proliferative disease and location thereof” value [1] is reported as “lung, non-small cell lung carcinoma, lung, adenocarcinoma” and the “Number of positive AMLs” value (primary AML samples; [2]) is reported as 2.

In the case of “269 (KLKQTTSALEK; listed as Homo sapiens) [compound 269]”, the “Proliferative disease and location thereof” value [1] is reported as “pancreas, adenocarcinoma, lung, adenocarcinoma” and the “Number of positive AMLs” value (primary AML samples; HLA ligand (LiTAP)) is reported as 2.

With “141 (ILGGPGTVQGV; listed as Homo sapiens) [compound 141]” the “Proliferative disease and location thereof” value [1] was “liver, hepatocellular carcinoma, cancer, vulva, squamous cell carcinoma” and the “Number of positive AMLs” value (primary AML samples; [2]) was 3.

“235 (SEELQRNISL; listed as Homo sapiens) [compound 235]” was tested, and the “Proliferative disease and location thereof” value [1] was “kidney, clear cell renal cell carcinoma, ovary, adenocarcinoma” and the “Number of positive AMLs” value (primary AML samples; [2]) was 1.

“257 (DYLDGVHTVF; listed as Homo sapiens) [compound 257]” was tested, and the “Proliferative disease and location thereof” value [1] was “colon or rectum, fibromatosis” and the “Number of positive AMLs” value (primary AML samples; HLA ligand (LiTAP)) was 2.

In the case of “17 (TVAEITGSKY; listed as Homo sapiens) [compound 17]”, the “Proliferative disease and location thereof” value [1] is reported as “thyroid gland, nodular hyperplasia” and the “Number of positive AMLs” value (primary AML samples; [2]) is reported as 1.

With “117 (TLDQKIERV; listed as Homo sapiens) [compound 117]” the “Proliferative disease and location thereof” value [1] was “stomach, metastatic, bone, non-ossifying fibroma” and the “Number of positive AMLs” value (primary AML samples; [2]) was 3.

For “267 (SIAAKILSY; listed as Homo sapiens) [compound 267]”, the “Proliferative disease and location thereof” value [1] was “liver, hepatocellular carcinoma, cancer, colon, adenocarcinoma” and the “Number of positive AMLs” value (primary AML samples; HLA ligand (LiTAP)) was 1.

For “259 (TYVSGMLRF; listed as Homo sapiens) [compound 259]”, the “Proliferative disease and location thereof” value [1] was “brain, glioblastoma, breast, carcinoma” and the “Number of positive AMLs” value (primary AML samples; HLA ligand (LiTAP)) was 1.

For “102 (EAYVQKMV; listed as Homo sapiens) [compound 102]”, the “Proliferative disease and location thereof” value [1] was “stomach, adenocarcinoma, liver, carcinoid tumor, metastatic” and the “Number of positive AMLs” value (primary AML samples; [2]) was 1.

With “206 (VEKILLSVV; listed as Homo sapiens) [compound 206]” the “Proliferative disease and location thereof” value [1] was “lung, non-small cell lung carcinoma, lung, neuroendocrine carcinoma” and the “Number of positive AMLs” value (primary AML samples; [2]) was 2.

“229 (AHDDGRWSL; listed as Homo sapiens) [compound 229]” was tested, and the “Proliferative disease and location thereof” value [1] was “stomach, metastatic, lung, squamous cell carcinoma” and the “Number of positive AMLs” value (primary AML samples; [2]) was 1.

“23 (NAAILKKV; listed as Homo sapiens) [compound 23]” was tested, and the “Proliferative disease and location thereof” value [1] was “brain, glioblastoma, thyroid gland, nodular; hyperplasia” and the “Number of positive AMLs” value (primary AML samples; [2]) was 2.

With “247 (VSNPKSFEY; listed as Homo sapiens) [compound 247]” the “Proliferative disease and location thereof” value [1] was “colon or rectum, parathyroid gland, adenoma” and the “Number of positive AMLs” value (primary AML samples; HLA ligand (LiTAP)) was 1.

With “239 (GVPIMLAY; listed as Homo sapiens) [compound 239]” the “Proliferative disease and location thereof” value [1] was “brain, glioblastoma, uterine cervix, squamous cell carcinoma” and the “Number of positive AMLs” value (primary AML samples; [2]) was 2.

“187 (IIKEKTVVY; listed as Homo sapiens) [compound 187]” was tested, and the “Proliferative disease and location thereof” value [1] was “liver, hepatocellular carcinoma, cancer, liver, hepatocellular carcinoma” and the “Number of positive AMLs” value (primary AML samples; [2]) was 1.

“253 (YLDFTNPKV; listed as Homo sapiens) [compound 253]” was tested, and the “Proliferative disease and location thereof” value [1] was “liver, hepatocellular carcinoma, uterine cervix, squamous cell carcinoma” and the “Number of positive AMLs” value (primary AML samples; HLA ligand (LiTAP)) was 3.

For “154 (DHDLLKNF; listed as Homo sapiens) [compound 154]”, the “Proliferative disease and location thereof” value [1] was “kidney, clear cell renal cell carcinoma, kidney, polycystic kidney disease” and the “Number of positive AMLs” value (primary AML samples; [2]) was 2.

With “15 (YMAELIERL; listed as Homo sapiens) [compound 15]” the “Proliferative disease and location thereof” value [1] was “colon or rectum, prostate, benign nodular; hyperplasia” and the “Number of positive AMLs” value (primary AML samples; [2]) was 3.

For “316 (AEDIPSLKL; listed as Homo sapiens) [compound 316]”, the “Proliferative disease and location thereof” value [1] was “breast, carcinoma” and the “Number of positive AMLs” value (primary AML samples; HLA ligand (LiTAP)) was 2.

With “305 (DSNATAAKM; listed as Homo sapiens) [compound 305]” the “Proliferative disease and location thereof” value [1] was “colon or rectum, testis, seminoma” and the “Number of positive AMLs” value (primary AML samples; HLA ligand (LiTAP)) was 1.

With “147 (TEFRSLVI; listed as Homo sapiens) [compound 147]” the “Proliferative disease and location thereof” value [1] was “kidney, clear cell renal cell carcinoma, stomach, gastrointestinal stromal tumor (GIST)” and the “Number of positive AMLs” value (primary AML samples; [2]) was 1.

With “71 (EEFQFIKKA; listed as Homo sapiens) [compound 71]” the “Proliferative disease and location thereof” value [1] was “kidney, clear cell renal cell carcinoma, synovial; sarcoma” and the “Number of positive AMLs” value (primary AML samples; [2]) was 2.

For “249 (NKGISDIIKV; listed as Homo sapiens) [compound 249]”, the “Proliferative disease and location thereof” value [1] was “lung, non-small cell lung carcinoma, stomach, adenocarcinoma” and the “Number of positive AMLs” value (primary AML samples; HLA ligand (LiTAP)) was 1.

For “254 (IPAVARTTTL; listed as Homo sapiens) [compound 254]”, the “Proliferative disease and location thereof” value [1] was “pancreas, adenocarcinoma, myometrium, leiomyoma” and the “Number of positive AMLs” value (primary AML samples; HLA ligand (LiTAP)) was 1.

For “271 (SEAQEGLQKF; listed as Homo sapiens) [compound 271]”, the “Proliferative disease and location thereof” value [1] was “kidney, clear cell renal cell carcinoma, kidney, transitional cell carcinoma” and the “Number of positive AMLs” value (primary AML samples; HLA ligand (LiTAP)) was 1.

With “162 (GEFGKPYFI; listed as Homo sapiens) [compound 162]” the “Proliferative disease and location thereof” value [1] was “colon or rectum, testis, seminoma” and the “Number of positive AMLs” value (primary AML samples; [2]) was 1.

For “282 (DIKPYIAEY; listed as Homo sapiens) [compound 282]”, the “Proliferative disease and location thereof” value [1] was “pancreas, adenocarcinoma, thymus, thymoma” and the “Number of positive AMLs” value (primary AML samples; HLA ligand (LiTAP)) was 3.

“59 (HRIYVPLML; listed as Homo sapiens) [compound 59]” was tested, and the “Proliferative disease and location thereof” value [1] was “stomach, diffuse subtype adenocarcinoma, pancreas, adenocarcinoma” and the “Number of positive AMLs” value (primary AML samples; [2]) was 1.

In the case of “244 (RTMVKTLEY; listed as Homo sapiens) [compound 244]”, the “Proliferative disease and location thereof” value [1] is reported as “colon or rectum, adrenal gland, adrenal cortical carcinoma” and the “Number of positive AMLs” value (primary AML samples; HLA ligand (LiTAP)) is reported as 1.

For “41: peptide found in KIF2C (gene looked up) (IYNGKLFDLL; listed as Homo sapiens) [compound 41]”, the “Proliferative disease and location thereof” value [1] was “stomach, metastatic, adenocarcinoma” and the “Number of positive AMLs” value (primary AML samples; [2]) was 1.

For “228 (ILKDMGITEY; listed as Homo sapiens) [compound 228]”, the “Proliferative disease and location thereof” value [1] was “stomach, adenocarcinoma, metastatic renal cell carcinoma” and the “Number of positive AMLs” value (primary AML samples; [2]) was 2.

With “30 (EFITVHSML; listed as Homo sapiens) [compound 30]” the “Proliferative disease and location thereof” value [1] was “stomach, skin, basal cell carcinoma” and the “Number of positive AMLs” value (primary AML samples; [2]) was 2.

In the case of “163 (KDVKVVIL; listed as Homo sapiens) [compound 163]”, the “Proliferative disease and location thereof” value [1] is reported as “colon or rectum, testis, seminoma” and the “Number of positive AMLs” value (primary AML samples; [2]) is reported as 1.

With “139 (EIIEKDTKY; listed as Homo sapiens) [compound 139]” the “Proliferative disease and location thereof” value [1] was “stomach, metastatic, lung, large cell carcinoma” and the “Number of positive AMLs” value (primary AML samples; [2]) was 2.

In the case of “34 (KEALLRDTI; listed as Homo sapiens) [compound 34]”, the “Proliferative disease and location thereof” value [1] is reported as “colon or rectum, lymph node, non-Hodgkin's; lymphoma” and the “Number of positive AMLs” value (primary AML samples; [2]) is reported as 1.

In the case of “130 (GQTGSGKTF; listed as Homo sapiens) [compound 130]”, the “Proliferative disease and location thereof” value [1] is reported as “stomach, adenocarcinoma, rectum, adenocarcinoma” and the “Number of positive AMLs” value (primary AML samples; [2]) is reported as 1.

In the case of “210 (TEKIAQLF; listed as Homo sapiens) [compound 210]”, the “Proliferative disease and location thereof” value [1] is reported as “stomach, adenocarcinoma, ovary, adenocarcinoma” and the “Number of positive AMLs” value (primary AML samples; [2]) is reported as 1.

With “120 (GEAVKVLSI; listed as Homo sapiens) [compound 120]” the “Proliferative disease and location thereof” value [1] was “liver, hepatocellular carcinoma, kidney, renal cell carcinoma” and the “Number of positive AMLs” value (primary AML samples; [2]) was 1.

“191 (IHDELQQSF; listed as Homo sapiens) [compound 191]” was tested, and the “Proliferative disease and location thereof” value [1] was “colon or rectum, spleen, chronic myeloid leukemia” and the “Number of positive AMLs” value (primary AML samples; [2]) was 3.

For “260 (DAIDGKQAR; listed as Homo sapiens) [compound 260]”, the “Proliferative disease and location thereof” value [1] was “brain, glioblastoma, liver, focal nodular; hyperplasia” and the “Number of positive AMLs” value (primary AML samples; HLA ligand (LiTAP)) was 2.

With “317 (DIPSLKLAL; listed as Homo sapiens) [compound 317]” the “Proliferative disease and location thereof” value [1] was “breast, carcinoma” and the “Number of positive AMLs” value (primary AML samples; HLA ligand (LiTAP)) was 1.

With “70 (DVFERPSAKK; listed as Homo sapiens) [compound 70]” the “Proliferative disease and location thereof” value [1] was “kidney, clear cell renal cell carcinoma, synovial; sarcoma” and the “Number of positive AMLs” value (primary AML samples; [2]) was 1.

In the case of “174 (IEDPVRPEV; listed as Homo sapiens) [compound 174]”, the “Proliferative disease and location thereof” value [1] is reported as “colon or rectum, liver, hepatocellular carcinoma” and the “Number of positive AMLs” value (primary AML samples; [2]) is reported as 1.

For “227 (APNYRLKSL; listed as Homo sapiens) [compound 227]”, the “Proliferative disease and location thereof” value [1] was “stomach, adenocarcinoma, metastatic renal cell carcinoma” and the “Number of positive AMLs” value (primary AML samples; [2]) was 1.

With “43 (LEEQASRQI; listed as Homo sapiens) [compound 43]” the “Proliferative disease and location thereof” value [1] was “stomach, metastatic, adenocarcinoma” and the “Number of positive AMLs” value (primary AML samples; [2]) was 1.

For “272 (DEAVLFVQV; listed as Homo sapiens) [compound 272]”, the “Proliferative disease and location thereof” value [1] was “pancreas, adenocarcinoma, ovary, mucinous; cystadenocarcinoma” and the “Number of positive AMLs” value (primary AML samples; HLA ligand (LiTAP)) was 3.

For “113 (RFFHLADLF; listed as Homo sapiens) [compound 113]”, the “Proliferative disease and location thereof” value [1] was “stomach, adenocarcinoma, testis, seminoma” and the “Number of positive AMLs” value (primary AML samples; [2]) was 1.

With “256 (KTTDTVSSF; listed as Homo sapiens) [compound 256]” the “Proliferative disease and location thereof” value [1] was “pancreas, adenocarcinoma, myometrium, leiomyoma” and the “Number of positive AMLs” value (primary AML samples; HLA ligand (LiTAP)) was 1.

With “31 (GQLDVRELI; listed as Homo sapiens) [compound 31]” the “Proliferative disease and location thereof” value [1] was “stomach, skin, basal cell carcinoma” and the “Number of positive AMLs” value (primary AML samples; [2]) was 1.
